These results are taken from PMC8342540, “The middle lipin domain adopts a membrane-binding dimeric protein fold” (Nature Communications, 2021).

Results are given in words; binding and its absence hold for the method and conditions named. In cells and extracts the contact can be indirect. Some binding calls cover weakened binding; strength is not graded here. Sequences can lack the tags named with a protein.

Test [1] deals with T1, wild-type lipin 1-V5 (full-length mouse lipin 1α, residues 1–891, C-terminal V5-His) (mouse) (UniProt Q91ZP3).
T1 sequence: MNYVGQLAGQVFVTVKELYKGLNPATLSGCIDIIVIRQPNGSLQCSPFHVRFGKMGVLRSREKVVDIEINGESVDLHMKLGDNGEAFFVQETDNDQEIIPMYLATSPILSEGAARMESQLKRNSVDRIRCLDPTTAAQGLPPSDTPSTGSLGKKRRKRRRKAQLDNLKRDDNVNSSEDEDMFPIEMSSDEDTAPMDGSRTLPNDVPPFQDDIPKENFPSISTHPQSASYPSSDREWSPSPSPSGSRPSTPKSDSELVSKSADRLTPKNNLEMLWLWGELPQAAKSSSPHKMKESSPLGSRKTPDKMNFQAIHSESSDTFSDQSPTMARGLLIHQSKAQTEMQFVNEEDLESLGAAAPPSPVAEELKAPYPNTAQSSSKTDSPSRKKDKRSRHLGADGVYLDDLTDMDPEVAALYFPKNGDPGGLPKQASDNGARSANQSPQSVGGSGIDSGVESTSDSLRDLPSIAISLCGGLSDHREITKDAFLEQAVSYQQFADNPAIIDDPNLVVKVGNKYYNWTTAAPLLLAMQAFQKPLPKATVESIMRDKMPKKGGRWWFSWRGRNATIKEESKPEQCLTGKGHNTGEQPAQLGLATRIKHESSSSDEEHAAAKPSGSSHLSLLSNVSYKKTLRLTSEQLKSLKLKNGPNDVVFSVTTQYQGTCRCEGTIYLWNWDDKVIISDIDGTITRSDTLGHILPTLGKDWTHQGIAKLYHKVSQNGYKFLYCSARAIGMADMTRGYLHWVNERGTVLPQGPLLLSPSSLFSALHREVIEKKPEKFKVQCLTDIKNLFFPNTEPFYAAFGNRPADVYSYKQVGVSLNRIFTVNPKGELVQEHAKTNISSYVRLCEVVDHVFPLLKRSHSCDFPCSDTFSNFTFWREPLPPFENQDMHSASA
Put plainly: co-IP; Hepa1-6 cells co-transfected with V5-tagged lipin 1 constructs and BirA*-HA-tagged lipins; lysis in 0.1% NP-40; IP with anti-V5, blot with anti-HA.

Test [2] has as its target T2, ΔM-Lip-V5 (mouse lipin 1α residues 1–891 Δ458–565, C-terminal V5-His) (mouse) (UniProt Q91ZP3).
T2 sequence: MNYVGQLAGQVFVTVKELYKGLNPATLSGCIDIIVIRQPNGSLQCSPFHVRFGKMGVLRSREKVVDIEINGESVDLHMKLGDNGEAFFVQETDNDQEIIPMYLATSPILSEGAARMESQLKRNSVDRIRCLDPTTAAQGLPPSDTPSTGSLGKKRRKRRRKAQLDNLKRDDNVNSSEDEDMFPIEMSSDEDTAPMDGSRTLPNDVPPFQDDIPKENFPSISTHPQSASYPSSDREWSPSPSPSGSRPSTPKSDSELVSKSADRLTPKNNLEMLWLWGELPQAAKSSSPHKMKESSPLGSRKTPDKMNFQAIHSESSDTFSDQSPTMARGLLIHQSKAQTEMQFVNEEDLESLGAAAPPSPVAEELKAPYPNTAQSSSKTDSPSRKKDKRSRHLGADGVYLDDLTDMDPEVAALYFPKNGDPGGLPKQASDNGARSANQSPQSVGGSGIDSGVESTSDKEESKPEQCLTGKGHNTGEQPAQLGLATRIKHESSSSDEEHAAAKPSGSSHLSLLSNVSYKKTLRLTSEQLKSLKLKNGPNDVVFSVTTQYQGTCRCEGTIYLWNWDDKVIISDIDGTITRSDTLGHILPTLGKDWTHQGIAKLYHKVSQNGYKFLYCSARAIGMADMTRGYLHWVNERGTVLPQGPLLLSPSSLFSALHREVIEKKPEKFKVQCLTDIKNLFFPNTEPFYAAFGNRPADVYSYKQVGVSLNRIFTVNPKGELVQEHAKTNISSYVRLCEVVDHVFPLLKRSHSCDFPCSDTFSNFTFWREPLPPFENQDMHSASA
The description is as above.

In test [3] the target is T3, ΔM-Lip^xtal-V5 (mouse lipin 1α residues 1–891 Δ458–548, C-terminal V5-His) (mouse) (UniProt Q91ZP3).
T3 sequence: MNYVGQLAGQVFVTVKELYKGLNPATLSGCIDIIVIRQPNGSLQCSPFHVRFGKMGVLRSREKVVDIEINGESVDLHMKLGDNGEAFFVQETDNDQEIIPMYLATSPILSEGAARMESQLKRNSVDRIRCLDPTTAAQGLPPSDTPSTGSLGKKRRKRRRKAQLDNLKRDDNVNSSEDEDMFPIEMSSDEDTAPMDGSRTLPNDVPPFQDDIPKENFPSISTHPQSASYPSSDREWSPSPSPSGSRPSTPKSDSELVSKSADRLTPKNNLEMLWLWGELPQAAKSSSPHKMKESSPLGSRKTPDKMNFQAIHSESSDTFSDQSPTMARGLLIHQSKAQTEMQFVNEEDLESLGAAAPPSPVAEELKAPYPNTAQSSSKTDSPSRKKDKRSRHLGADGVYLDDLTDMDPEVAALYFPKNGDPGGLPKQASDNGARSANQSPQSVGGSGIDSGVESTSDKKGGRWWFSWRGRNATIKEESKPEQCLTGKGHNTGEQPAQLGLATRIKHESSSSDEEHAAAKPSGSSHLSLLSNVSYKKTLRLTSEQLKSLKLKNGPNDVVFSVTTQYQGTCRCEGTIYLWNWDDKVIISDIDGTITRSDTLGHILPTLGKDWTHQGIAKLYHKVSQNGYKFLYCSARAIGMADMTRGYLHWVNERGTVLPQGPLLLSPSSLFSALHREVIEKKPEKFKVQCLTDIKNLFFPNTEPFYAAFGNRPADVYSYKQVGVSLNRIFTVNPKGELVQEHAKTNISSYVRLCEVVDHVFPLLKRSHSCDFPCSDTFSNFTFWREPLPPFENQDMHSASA
The test is described as above.

Test [4] has as its target T1, wild-type lipin 1-V5 (full-length mouse lipin 1α, residues 1–891, C-terminal V5-His) (mouse). Put plainly: co-IP; independent experiments with other epitope tags: V5-tagged full-length or ΔM-Lip lipin 1 with lipin 1-FLAG or lipin 3-Myc; IP with anti-V5, blot with anti-FLAG or anti-Myc.
In test [5] the target is T2, ΔM-Lip-V5 (mouse lipin 1α residues 1–891 Δ458–565, C-terminal V5-His) (mouse). The test is described as above.

B1: lipin 3-BirA*-HA (protein, UniProt Q99PI4 1-848)
chain: MNYVGQLAETVFGTVKELYRGLNPATLSGGIDVLVVRQRDGSFRCSPFHVRFGKLGVLRSREKVVDIEINGEPVDLHMKLGDSGEAFFVQELDSDEEDVPPRLCTSPIPWGGLSGFPSDSQIGTASEPEGLVITGRRKRRRRRKPRRREEDAVDSSSEELEAGAESELTLLEKPTPESPSAQEAEEPSSQPKDIHPYSDGECTPQANLSSGDLMSPKSDSELELRSLEPSPLRAESHMQWVWGRLPKVAKAERPEFSLILESMAEAICALPEEPSPSSSPSEAGVDTLSPPVLHPGVRADTFHPAVEAHCEETAVDSPLAAPESKETKTQNSRGAGHPPATKSWSWTTPESHTPSGHPQVSRGKGSLKRNQHLGPSDIYLDDLPSLDSENVALYFPKSEYGMGARRWSEPSNQKLLESPNPEHIAECTLDSVDKIELSLCGGLADNRDISLEKFTQHMVSYEDLTKNPGLLDDPNLVVKINEKHYNWAVAAPMILSLQAFQKNLPESTVDKLEKEKMPRKGGRWWFSWRRRDFPAEEHSSQREKAATRKQQGEKTEVLSSDDDVPDSPVILEVPPLPSSTPGYVPTYKKSLRLSSDQIRCLNLNEGANDVVFSVTTQYQGTCRCKATIYLWNWDDKVVISDIDGTITKSDALGHILPQLGKDWTHQGITSLYHKIHLNGYKFLYCSARAIGMADLTKGYLQWVSEHGCGLPKGPILLSPSSLFSALHREVIEKKPEVFKVACLSDIQQLFLPQRQPFHAAFGNRPNDVFAYRQVGLPESRIFTVNPRGELIQELIKSHKSTYQRLGEVVELLFPPVVRGPSTDLASPEYSNLSYWRKPLPYVDFEALA
Consider B1, for which the binding entry in test [1], in test [2] and in test [3] was “binds” in each case.

B2: lipin 3-Myc (protein, UniProt Q99PI4 1-848)
chain: B1 chain
With B2, the binding entry in test [4] and in test [5] was “binds” throughout.

B3: lipin 2-BirA*-HA (protein, UniProt Q99PI5 1-893)
chain: MNYVGQLAGQVLVTVKELYKGINQATLSGCIDVVVVRQQDGSYQCSPFHVRFGKLGVLRSKEKVIDIEINGSAVDLHMKLGDNGEAFFVEETEEEYEKLPAYLATSPIPTEDQFFKHIETPLVKSSGNERPAQSSDVSHTLESEAVFTQSSVKKKKRRRKKCKQDNRKEEQAASPVAEDVGDVGVSSDDEKRAQAARGSSNASLKEEDYKEPSLFHSGDNYPLSDGDWSPLETTYPQAVCPKSDSELEVKPSESLLRSEPHMEWTWGGFPESTKVTKRERYDYHPRTATITPSENTHFRVIPSEDSLIREVEKDATVEDTTCTIVKPKPRALCKQLSDAASTELPESPLEAPQISSLLDADPVPSPSAEAPSEPKPAAKDSPTKKKGVHKRSQHQGPDDIYLDDLKALEPEVAALYFPKSDTDPGSRQWPESDTFSGSQSPQSVGSAAADSGTECLSDSAMDLPDVTLSLCGGLSENGEISKEKFMEHIITYHEFAENPGLIDNPNLVIRIYNRYYNWALAAPMILSLQVFQKSLPKATVESWVKDKMPKKSGRWWFWRKKESMIKQLPETKEGKSEVPPANDLPSNAEEPTSARPAENDTSSDEGSQELEESIKVDPITVETLSHCGTASYKKSLRLSSDQIAKLKLHDGPNDVVFSITTQYQGTCRCAGTIYLWNWNDKVIISDIDGTITKSDALGQILPQLGKDWTHQGIARLYHSINENGYKFLYCSARAIGMADMTRGYLHWVNDKGTILPRGPLMLSPSSLFSAFHREVIEKKPEKFKIECLNDIKNLFAPSRQPFYAAFGNRPNDVYAYTQVGVPDCRIFTVNPKGELIQERTKGNKSSYHRLSELVEHVFPLLSKEQNSAFPCPEFSSFCYWRDPIPDLDLDDLA
Consider B3, for which the binding result in test [1], in test [2] and in test [3] was “binds” each time.
